# Reference: the supplement of paper PMC10032668
# By UniProt entry, the sequences of proteins in these tests, tags left out.
# DDX39A, O00148, UniProt O00148, whole entry: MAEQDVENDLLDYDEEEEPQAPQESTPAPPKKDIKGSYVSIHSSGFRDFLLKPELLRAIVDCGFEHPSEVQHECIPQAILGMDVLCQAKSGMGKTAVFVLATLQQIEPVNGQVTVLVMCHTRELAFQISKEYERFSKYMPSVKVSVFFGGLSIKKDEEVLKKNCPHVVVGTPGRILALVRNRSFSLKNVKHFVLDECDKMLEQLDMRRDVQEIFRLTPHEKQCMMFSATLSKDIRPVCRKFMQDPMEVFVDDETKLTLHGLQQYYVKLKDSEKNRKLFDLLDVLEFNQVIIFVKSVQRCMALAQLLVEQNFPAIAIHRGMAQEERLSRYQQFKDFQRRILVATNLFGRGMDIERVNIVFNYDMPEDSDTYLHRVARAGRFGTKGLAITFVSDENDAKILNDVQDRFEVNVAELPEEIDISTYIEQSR
# DNM1L, O00429, UniProt O00429, whole entry: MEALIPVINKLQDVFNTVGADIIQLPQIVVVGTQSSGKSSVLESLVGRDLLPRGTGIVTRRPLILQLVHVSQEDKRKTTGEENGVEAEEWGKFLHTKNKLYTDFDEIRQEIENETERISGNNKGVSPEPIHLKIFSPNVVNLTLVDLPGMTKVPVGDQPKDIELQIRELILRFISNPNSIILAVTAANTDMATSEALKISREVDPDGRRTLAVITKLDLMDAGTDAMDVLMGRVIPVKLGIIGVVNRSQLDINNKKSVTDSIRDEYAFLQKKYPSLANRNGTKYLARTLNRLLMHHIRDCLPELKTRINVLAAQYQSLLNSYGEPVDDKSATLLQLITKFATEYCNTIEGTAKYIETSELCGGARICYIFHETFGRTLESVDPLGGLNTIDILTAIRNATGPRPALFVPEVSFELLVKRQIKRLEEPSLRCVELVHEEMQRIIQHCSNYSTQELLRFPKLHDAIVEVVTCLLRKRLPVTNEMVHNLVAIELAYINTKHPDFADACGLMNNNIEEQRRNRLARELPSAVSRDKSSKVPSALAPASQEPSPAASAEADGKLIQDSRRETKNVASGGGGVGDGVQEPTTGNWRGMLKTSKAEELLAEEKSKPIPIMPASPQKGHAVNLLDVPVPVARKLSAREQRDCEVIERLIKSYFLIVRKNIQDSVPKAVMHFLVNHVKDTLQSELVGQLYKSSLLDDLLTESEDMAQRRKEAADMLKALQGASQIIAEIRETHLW
# NUP153, P49790, UniProt P49790, whole entry: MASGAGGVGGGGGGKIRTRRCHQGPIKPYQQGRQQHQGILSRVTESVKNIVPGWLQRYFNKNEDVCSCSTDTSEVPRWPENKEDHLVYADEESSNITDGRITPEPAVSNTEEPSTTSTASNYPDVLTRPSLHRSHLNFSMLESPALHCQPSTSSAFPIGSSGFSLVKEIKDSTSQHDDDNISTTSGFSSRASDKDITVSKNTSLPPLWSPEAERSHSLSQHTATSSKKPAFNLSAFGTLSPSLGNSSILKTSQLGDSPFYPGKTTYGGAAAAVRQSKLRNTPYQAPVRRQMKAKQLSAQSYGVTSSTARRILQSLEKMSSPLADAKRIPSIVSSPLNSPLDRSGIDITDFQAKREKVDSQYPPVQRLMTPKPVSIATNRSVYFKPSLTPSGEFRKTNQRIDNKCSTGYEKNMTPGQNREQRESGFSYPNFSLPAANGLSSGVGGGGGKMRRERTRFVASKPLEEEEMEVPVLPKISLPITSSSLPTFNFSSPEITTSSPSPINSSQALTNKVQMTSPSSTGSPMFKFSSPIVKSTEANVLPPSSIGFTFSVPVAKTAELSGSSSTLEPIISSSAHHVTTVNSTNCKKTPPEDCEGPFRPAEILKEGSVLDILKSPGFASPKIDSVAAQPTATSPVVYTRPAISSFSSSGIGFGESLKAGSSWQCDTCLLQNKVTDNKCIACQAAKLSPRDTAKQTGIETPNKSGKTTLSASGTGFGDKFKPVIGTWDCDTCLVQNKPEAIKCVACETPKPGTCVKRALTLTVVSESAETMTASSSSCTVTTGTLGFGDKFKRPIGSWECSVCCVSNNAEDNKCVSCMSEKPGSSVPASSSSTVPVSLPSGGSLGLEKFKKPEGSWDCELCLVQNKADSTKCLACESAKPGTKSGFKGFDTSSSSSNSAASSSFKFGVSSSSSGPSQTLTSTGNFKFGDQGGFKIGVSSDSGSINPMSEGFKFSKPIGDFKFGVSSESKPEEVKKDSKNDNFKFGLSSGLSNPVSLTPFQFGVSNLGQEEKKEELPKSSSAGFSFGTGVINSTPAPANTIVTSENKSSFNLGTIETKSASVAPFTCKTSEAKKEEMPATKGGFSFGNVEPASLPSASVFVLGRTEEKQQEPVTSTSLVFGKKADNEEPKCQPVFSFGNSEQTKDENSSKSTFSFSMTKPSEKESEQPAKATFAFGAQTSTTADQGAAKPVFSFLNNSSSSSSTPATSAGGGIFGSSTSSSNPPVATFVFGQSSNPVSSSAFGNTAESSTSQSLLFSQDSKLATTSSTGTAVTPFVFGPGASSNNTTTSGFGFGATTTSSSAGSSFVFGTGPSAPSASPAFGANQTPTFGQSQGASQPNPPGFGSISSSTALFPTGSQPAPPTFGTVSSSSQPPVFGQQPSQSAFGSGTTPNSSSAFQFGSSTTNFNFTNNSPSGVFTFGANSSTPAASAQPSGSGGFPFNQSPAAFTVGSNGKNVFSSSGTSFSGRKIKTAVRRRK
# ATP6V0D1, P61421, UniProt P61421, whole entry: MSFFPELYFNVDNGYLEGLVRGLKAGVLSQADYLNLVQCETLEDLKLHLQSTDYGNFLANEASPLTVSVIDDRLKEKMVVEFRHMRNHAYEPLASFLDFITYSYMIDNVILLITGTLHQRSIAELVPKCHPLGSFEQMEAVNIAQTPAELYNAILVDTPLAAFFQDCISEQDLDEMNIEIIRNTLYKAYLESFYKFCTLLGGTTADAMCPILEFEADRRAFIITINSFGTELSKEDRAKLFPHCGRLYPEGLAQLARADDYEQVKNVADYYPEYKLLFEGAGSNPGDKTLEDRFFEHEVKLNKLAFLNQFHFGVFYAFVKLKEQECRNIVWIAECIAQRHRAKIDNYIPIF
# AURKB, Q96GD4, UniProt Q96GD4, whole entry: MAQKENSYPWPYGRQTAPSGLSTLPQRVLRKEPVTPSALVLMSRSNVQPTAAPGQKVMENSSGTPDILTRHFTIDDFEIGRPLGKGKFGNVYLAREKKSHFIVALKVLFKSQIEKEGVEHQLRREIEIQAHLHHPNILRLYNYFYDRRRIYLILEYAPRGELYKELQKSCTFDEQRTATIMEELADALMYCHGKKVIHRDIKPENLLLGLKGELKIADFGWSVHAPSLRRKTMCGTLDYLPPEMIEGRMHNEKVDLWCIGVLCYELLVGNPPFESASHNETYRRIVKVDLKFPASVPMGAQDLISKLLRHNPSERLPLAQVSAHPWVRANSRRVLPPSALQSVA
# CDC27, P30260, UniProt P30260, whole entry: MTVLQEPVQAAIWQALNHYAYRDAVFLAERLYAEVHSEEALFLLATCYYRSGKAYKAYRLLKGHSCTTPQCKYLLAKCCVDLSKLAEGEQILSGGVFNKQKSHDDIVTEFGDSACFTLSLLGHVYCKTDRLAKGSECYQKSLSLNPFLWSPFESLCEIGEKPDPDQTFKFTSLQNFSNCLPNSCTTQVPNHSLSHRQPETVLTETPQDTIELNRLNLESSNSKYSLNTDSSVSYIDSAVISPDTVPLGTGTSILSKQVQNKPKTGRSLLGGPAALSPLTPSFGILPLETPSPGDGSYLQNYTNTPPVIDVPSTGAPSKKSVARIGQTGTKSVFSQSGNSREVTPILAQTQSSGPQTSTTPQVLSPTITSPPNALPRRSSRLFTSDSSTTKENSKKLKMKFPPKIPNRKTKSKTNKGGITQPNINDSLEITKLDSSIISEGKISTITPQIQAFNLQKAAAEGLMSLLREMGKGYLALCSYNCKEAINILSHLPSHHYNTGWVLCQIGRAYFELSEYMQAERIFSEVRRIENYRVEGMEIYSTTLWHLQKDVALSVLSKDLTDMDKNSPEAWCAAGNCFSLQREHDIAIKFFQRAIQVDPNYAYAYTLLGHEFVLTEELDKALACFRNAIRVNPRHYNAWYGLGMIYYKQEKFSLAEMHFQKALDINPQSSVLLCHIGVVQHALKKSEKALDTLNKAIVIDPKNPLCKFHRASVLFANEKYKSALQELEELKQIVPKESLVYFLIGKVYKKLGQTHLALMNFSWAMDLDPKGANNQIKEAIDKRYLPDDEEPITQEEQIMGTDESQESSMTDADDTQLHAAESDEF
# CFDP1, Q9UEE9, UniProt Q9UEE9, whole entry: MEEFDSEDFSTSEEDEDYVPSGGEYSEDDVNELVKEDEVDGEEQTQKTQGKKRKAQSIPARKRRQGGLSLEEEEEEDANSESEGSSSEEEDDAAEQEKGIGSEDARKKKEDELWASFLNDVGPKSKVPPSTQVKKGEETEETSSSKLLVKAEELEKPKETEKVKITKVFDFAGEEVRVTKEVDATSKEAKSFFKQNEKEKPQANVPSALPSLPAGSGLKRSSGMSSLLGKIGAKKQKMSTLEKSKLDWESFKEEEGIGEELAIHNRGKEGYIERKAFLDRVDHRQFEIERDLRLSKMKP
# MAGOHB, Q96A72, UniProt Q96A72, whole entry: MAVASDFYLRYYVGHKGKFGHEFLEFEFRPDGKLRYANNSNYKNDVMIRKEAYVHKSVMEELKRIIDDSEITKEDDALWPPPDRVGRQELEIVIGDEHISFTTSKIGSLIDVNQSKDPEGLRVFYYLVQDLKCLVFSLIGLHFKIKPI
# MORF4L2, Q15014, UniProt Q15014, whole entry: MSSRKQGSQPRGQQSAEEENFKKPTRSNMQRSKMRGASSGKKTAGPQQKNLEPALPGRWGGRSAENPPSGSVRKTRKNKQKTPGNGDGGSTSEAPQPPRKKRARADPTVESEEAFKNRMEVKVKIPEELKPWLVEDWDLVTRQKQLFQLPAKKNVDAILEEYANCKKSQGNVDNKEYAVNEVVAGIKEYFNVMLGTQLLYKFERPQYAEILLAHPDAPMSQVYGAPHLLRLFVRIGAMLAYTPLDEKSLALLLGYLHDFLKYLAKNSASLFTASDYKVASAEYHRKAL
# WDR82, Q6UXN9, UniProt Q6UXN9, whole entry: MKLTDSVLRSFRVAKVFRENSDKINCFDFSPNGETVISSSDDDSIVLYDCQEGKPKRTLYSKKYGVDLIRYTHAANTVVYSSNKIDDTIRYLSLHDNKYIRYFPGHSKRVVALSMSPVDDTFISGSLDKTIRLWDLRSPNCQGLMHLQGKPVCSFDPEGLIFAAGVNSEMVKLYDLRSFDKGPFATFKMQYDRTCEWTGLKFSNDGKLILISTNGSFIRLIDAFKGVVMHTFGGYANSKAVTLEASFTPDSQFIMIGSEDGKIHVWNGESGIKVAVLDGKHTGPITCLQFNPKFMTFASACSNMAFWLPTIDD
# This is one part of the list. Only hits are listed; about a third recur on repeated control peptides.
# Columns and labels:
# Experiment in all cases: PRISMA enrichment of interactor (LFQ) in peptide spot vs all other peptide spots (log2 fold change); higher = stronger / more specific binding of the interactor to the peptide
# ATP2A2, P16615 = target: ATP2A2, P16615
# Experimental: (§1)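 PRISMA: 15-aa overlapping tiles (offset 8 aa) of 60 microproteins, plus SOS1/GLUT1 control peptides, were spot-synthesized on cellulose membranes in triplicate. Membranes were incubated with benzonase-treated HEK293T lysate, and bound proteins were identified by LC-MS/MS with LFQ. Enrichment is the log2 fold change of each protein in one spot versus all other spots. Only interactors passing the significance cutoff are listed.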
# CLASRP, Q8N2M8 = target: CLASRP, Q8N2M8
# Experimental: as §1
# DDX39A, O00148 = target: DDX39A, O00148
# Experimental: as §1
# DHX15, O43143 = target: DHX15, O43143
# Experimental: as §1
# DNM1L, O00429 = target: DNM1L, O00429
# Experimental: as §1
# EBNA1BP2, Q99848 = target: EBNA1BP2, Q99848
# Experimental: as §1
# ELOB, Q15370 = target: ELOB, Q15370
# Experimental: as §1
# JPT2, Q9H910 = target: JPT2, Q9H910
# Experimental: as §1
# MCM4, P33991 = target: MCM4, P33991
# Experimental: as §1
# NXF1, Q9UBU9 = target: NXF1, Q9UBU9
# Experimental: as §1
# SCP2, P22307 = target: SCP2, P22307
# Experimental: as §1
# SFXN2, Q96NB2 = target: SFXN2, Q96NB2
# Experimental: as §1
# SRRT, Q9BXP5 = target: SRRT, Q9BXP5
# Experimental: as §1
# TFB2M, Q9H5Q4 = target: TFB2M, Q9H5Q4
# Experimental: as §1
# TOP1, P11387 = target: TOP1, P11387
# Experimental: as §1
# UBE3C, Q15386 = target: UBE3C, Q15386
# Experimental: as §1
# EARS2, Q5JPH6 = target: EARS2, Q5JPH6
# Experimental: as §1
# GATAD1, Q8WUU5 = target: GATAD1, Q8WUU5
# Experimental: as §1
# MMTAG2, Q9BU76 = target: MMTAG2, Q9BU76
# Experimental: as §1
# MRPS5, P82675 = target: MRPS5, P82675
# Experimental: as §1
# NUP153, P49790 = target: NUP153, P49790
# Experimental: as §1
# PPP1R10, Q96QC0 = target: PPP1R10, Q96QC0
# Experimental: as §1
# RBM15, Q96T37 = target: RBM15, Q96T37
# Experimental: as §1
# ZCCHC3, Q9NUD5 = target: ZCCHC3, Q9NUD5
# Experimental: as §1
# ZFR, Q96KR1 = target: ZFR, Q96KR1
# Experimental: as §1
# ATP2C1, P98194 = target: ATP2C1, P98194
# Experimental: as §1
# ATP6V0D1, P61421 = target: ATP6V0D1, P61421
# Experimental: as §1
# AURKB, Q96GD4 = target: AURKB, Q96GD4
# Experimental: as §1
# CDC27, P30260 = target: CDC27, P30260
# Experimental: as §1
# CFDP1, Q9UEE9 = target: CFDP1, Q9UEE9
# Experimental: as §1
# CHD4, Q14839 = target: CHD4, Q14839
# Experimental: as §1
# CIAO1, O76071 = target: CIAO1, O76071
# Experimental: as §1
# COPB2, P35606 = target: COPB2, P35606
# Experimental: as §1
# CSDE1, O75534 = target: CSDE1, O75534
# Experimental: as §1
# HP, P00738 = target: HP, P00738
# Experimental: as §1
# MAGOHB, Q96A72 = target: MAGOHB, Q96A72
# Experimental: as §1
# MORF4L2, Q15014 = target: MORF4L2, Q15014
# Experimental: as §1
# MRPL16, Q9NX20 = target: MRPL16, Q9NX20
# Experimental: as §1
# MRPL41, Q8IXM3 = target: MRPL41, Q8IXM3
# Experimental: as §1
# NEFM, P07197 = target: NEFM, P07197
# Experimental: as §1
# PEX11B, O96011 = target: PEX11B, O96011
# Experimental: as §1
# SRPK2, P78362 = target: SRPK2, P78362
# Experimental: as §1
# TAOK2, Q9UL54 = target: TAOK2, Q9UL54
# Experimental: as §1
# TIMM8A, O60220 = target: TIMM8A, O60220
# Experimental: as §1
# TMEM214, Q6NUQ4 = target: TMEM214, Q6NUQ4
# Experimental: as §1
# TTN, Q8WZ42 = target: TTN, Q8WZ42
# Experimental: as §1
# UBXN7, O94888 = target: UBXN7, O94888
# Experimental: as §1
# UTP15, Q8TED0 = target: UTP15, Q8TED0
# Experimental: as §1
# WDCP, Q9H6R7 = target: WDCP, Q9H6R7
# Experimental: as §1
# WDR82, Q6UXN9 = target: WDR82, Q6UXN9
# Experimental: as §1
binder,measurement,setting,value
PTAVAAEAPVDAAEL [RNF10],PRISMA enrichment of interactor (log2),"ATP2A2, P16615",5.88
same,PRISMA enrichment of interactor (log2),"CLASRP, Q8N2M8",4.94
same,PRISMA enrichment of interactor (log2),"DDX39A, O00148",6.23
same,PRISMA enrichment of interactor (log2),"DHX15, O43143",5.66
same,PRISMA enrichment of interactor (log2),"DNM1L, O00429",4.7
same,PRISMA enrichment of interactor (log2),"EBNA1BP2, Q99848",5.07
same,PRISMA enrichment of interactor (log2),"ELOB, Q15370",4.55
same,PRISMA enrichment of interactor (log2),"JPT2, Q9H910",4.17
same,PRISMA enrichment of interactor (log2),"MCM4, P33991",5.23
same,PRISMA enrichment of interactor (log2),"NXF1, Q9UBU9",4.83
same,PRISMA enrichment of interactor (log2),"SCP2, P22307",5.01
same,PRISMA enrichment of interactor (log2),"SFXN2, Q96NB2",4.56
same,PRISMA enrichment of interactor (log2),"SRRT, Q9BXP5",4.79
same,PRISMA enrichment of interactor (log2),"TFB2M, Q9H5Q4",6.2
same,PRISMA enrichment of interactor (log2),"TOP1, P11387",5.46
same,PRISMA enrichment of interactor (log2),"UBE3C, Q15386",6.81
LKSRERQWQGQVAKC [RP11-140K17.3],PRISMA enrichment of interactor (log2),"ATP2A2, P16615",4.98
same,PRISMA enrichment of interactor (log2),"EARS2, Q5JPH6",5.58
same,PRISMA enrichment of interactor (log2),"GATAD1, Q8WUU5",3.98
same,PRISMA enrichment of interactor (log2),"MMTAG2, Q9BU76",5.31
same,PRISMA enrichment of interactor (log2),"MRPS5, P82675",6.98
same,PRISMA enrichment of interactor (log2),"NUP153, P49790",5.6
same,PRISMA enrichment of interactor (log2),"PPP1R10, Q96QC0",4.99
same,PRISMA enrichment of interactor (log2),"RBM15, Q96T37",4.32
same,PRISMA enrichment of interactor (log2),"ZCCHC3, Q9NUD5",4.66
same,PRISMA enrichment of interactor (log2),"ZFR, Q96KR1",6.84
SKDVPRDPRHLPVDF [PVT1],PRISMA enrichment of interactor (log2),"ATP2C1, P98194",9.99
same,PRISMA enrichment of interactor (log2),"ATP6V0D1, P61421",6.49
same,PRISMA enrichment of interactor (log2),"AURKB, Q96GD4",6.3
same,PRISMA enrichment of interactor (log2),"CDC27, P30260",6.42
same,PRISMA enrichment of interactor (log2),"CFDP1, Q9UEE9",4.95
same,PRISMA enrichment of interactor (log2),"CHD4, Q14839",6.36
same,PRISMA enrichment of interactor (log2),"CIAO1, O76071",4.7
same,PRISMA enrichment of interactor (log2),"COPB2, P35606",11.8
same,PRISMA enrichment of interactor (log2),"CSDE1, O75534",5.6
same,PRISMA enrichment of interactor (log2),"HP, P00738",5
same,PRISMA enrichment of interactor (log2),"MAGOHB, Q96A72",5.87
same,PRISMA enrichment of interactor (log2),"MORF4L2, Q15014",5.8
same,PRISMA enrichment of interactor (log2),"MRPL16, Q9NX20",4.17
same,PRISMA enrichment of interactor (log2),"MRPL41, Q8IXM3",6.32
same,PRISMA enrichment of interactor (log2),"NEFM, P07197",4.28
same,PRISMA enrichment of interactor (log2),"PEX11B, O96011",7.71
same,PRISMA enrichment of interactor (log2),"SRPK2, P78362",4.44
same,PRISMA enrichment of interactor (log2),"TAOK2, Q9UL54",9.07
same,PRISMA enrichment of interactor (log2),"TIMM8A, O60220",6.44
same,PRISMA enrichment of interactor (log2),"TMEM214, Q6NUQ4",5.64
same,PRISMA enrichment of interactor (log2),"TTN, Q8WZ42",6.38
same,PRISMA enrichment of interactor (log2),"UBXN7, O94888",8.86
same,PRISMA enrichment of interactor (log2),"UTP15, Q8TED0",6.27
same,PRISMA enrichment of interactor (log2),"WDCP, Q9H6R7",4.36
same,PRISMA enrichment of interactor (log2),"WDR82, Q6UXN9",4.63

# A section taken from the entries so far, as a working copy:
binder,measurement,setting,value
LKSRERQWQGQVAKC [RP11-140K17.3],PRISMA enrichment of interactor (log2),"GATAD1, Q8WUU5",3.98
same,PRISMA enrichment of interactor (log2),"MMTAG2, Q9BU76",5.31
